Measured values from patent US11884627B2, “Compounds and compositions for treating conditions associated with LPA receptor activity” (Lhotse Bio, Inc., priority 2022, dated 2024).

Chains of the proteins cited; added tags and fusions are not shown.
UniProt Q92633, whole entry: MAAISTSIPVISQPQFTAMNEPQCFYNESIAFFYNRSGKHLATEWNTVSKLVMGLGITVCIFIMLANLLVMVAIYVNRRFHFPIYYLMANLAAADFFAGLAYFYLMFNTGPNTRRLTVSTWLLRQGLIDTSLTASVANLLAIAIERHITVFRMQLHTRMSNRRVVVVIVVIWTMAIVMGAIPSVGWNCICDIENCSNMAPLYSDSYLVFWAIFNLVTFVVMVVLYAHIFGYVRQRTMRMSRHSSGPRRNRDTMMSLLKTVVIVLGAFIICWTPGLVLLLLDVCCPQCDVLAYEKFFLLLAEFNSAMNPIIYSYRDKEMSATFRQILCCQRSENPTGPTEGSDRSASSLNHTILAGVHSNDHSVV

Tests used:
human LPA1 [1] = biological target: T1, human LPA1 (Homo sapiens, UniProt Q92633); experiment: In vitro LPA1 functional antagonist assay (calcium mobilization, FLIPR); settings: Table B2; CHO-K1 cells overexpressing human LPA1, Oleoyl LPA challenge at EC80
Protocol: In Vitro LPA1 Functional Antagonist Assay
CHO-K1 cells overexpressing human LPA1 were seeded in a total volume of 20 μL into black-walled, clear-bottom. Poly-D-lysine coated 384-well microplates and incubated at 37° C., for the appropriate time prior to testing. Assays were performed in 1× Dye Loading Buffer consisting of 1× Dye, 1× Additive A and 2.5 mM Probenecid in HBSS/20 mM Hepes. Probenicid was prepared fresh. Cells were loaded with dye prior to testing. Media was aspirated from cells and replaced with 20 μL Dye Loading Buffer. Cells were incubated for 30-60 minutes at 37° C. After dye loading, cells were removed from the incubator and 10 μL 3× test compound was added. […] Compound antagonist activity was measured on a FLIPR Tetra (MSD). Calcium mobilization was monitored for 2 minutes and 10 μL Oleoyl LPA in HBSS/20 mM Hepes was added to the cells 5 seconds into the assay. […] LPA agonist activity was measured on a FLIPR Tetra (MSD). Calcium mobilization was monitored for 2 minutes and 10 μL 4×LPA sample in HBSS/20 mM Hepes was added to the cells 5 seconds into the assay. Compound activity was analyzed using CBIS data analysis suite (ChemInnovation, CA). Percentage inhibition is calculated using the following formula: % Inhibition=100%×(1−(mean RFU of test sample−mean RFU of vehicle control)/(mean RFU of LPA control−mean RFU of vehicle control)). […]

human LPA1 [2] = biological target: T1, human LPA1; experiment: In vitro LPA1 calcium flux antagonist assay - Bioduro protocol; settings: CHO-K1 cells overexpressing human LPA1 and G15a, LPA challenge at EC80
Protocol: In Vitro LPA1 Calcium Flux Antagonist Assay—Bioduro Protocol
CHO-K1 cells overexpressing human LPA1 and G15a were seeded at a total volume of 20 μL (15000 cells/well) into Matrigel pre-coated 384-well plates (corning −3764) and incubated at 37° C. After overnight incubation, the cells were serum starved for 4 h. Assays were performed in dye loading buffer containing 1× Fluo-8 AM (AAT Bioquest, 21080) and 2.5 mM probenecid (Thermo Fisher, 36400) in HBSS/20 mM Hepes. After cell starvation, the medium was replaced with 20 μL of dye loading buffer and incubated at 37° C., for 30 min. Then 5 μL of 5× compound titrated in dye loading buffer was added to the cells and incubated for 30 min followed by LPA challenge at EC80. Calcium mobilization was measured on a FLIPR Tetra (MSD). For LPA EC80 determination, starved cells were incubated with 20 μL of dye loading buffer for 1 h, then 5 μL of 5×LPA titrated in dye loading buffer was added to the cells. Calcium signals induced by LPA was monitors on a FLIPR.
Percentage inhibition is calculated using the following formula: % Inhibition=100%×(1−(mean RFU of test sample−mean RFU of DMSO)/(mean RFU of LPA control−mean RFU of DMSO)).
Table B3 and Table B4 show the biological activity of compounds in in vitro LPA1 Calcium flux antagonist assay—Bioduro protocol.

[3] = calcium mobilization on FLIPR Tetra
[4] = read-out: Activity (IC50 class), Table B3

Structure (SMILES)	IC50 (human LPA1 [1]) [nM]	IC50 (human LPA1 [2]; [3]) [nM]	IC50 (human LPA1 [2]; [4]) [nM]
COc1cc(-c2ccc(NC3(C(=O)O)CCOCC3)cc2COC2CCCC2)c(C)c(OC)n1	8.88	25.7	< 100
CCCCOCc1cc(NC2(C(=O)O)CCC2)ccc1-c1cc(OC)cc(OCC)c1F		17.4	< 100
COc1c(C#N)ccc(-c2ccc(NC3(C(=O)O)CCOCC3)cc2COC2CCCC2)c1C		27	< 100
COc1cc(-c2ccc(OC3(C(=O)O)CCOCC3)cc2CCC2CCOC2)c(F)c(OC)c1C (single isomer, unassigned)		81.3	< 100
COc1cc(C)cc(-c2c(C)cc(NC3(C(=O)O)CCOCC3)cc2COC2CCCC2)c1		666	100 to 1000
O=C(O)C1(Nc2ccc(-c3cncc(OC4CC4)c3C(F)F)c(COC3CC3)c2)CCOCC1		65	< 100
COc1cc(-c2ccc(OC3(C(=O)O)CCOCC3)cc2CCC2CCOC2)c(Cl)c(OC)n1 (single isomer, unassigned) [269]		259	100 to 1000
CCOc1cc(OC)cc(-c2ccc(OC3(C(=O)O)CCOCC3)cc2COC2CC2)c1F		144	100 to 1000
COc1cc(-c2ccc(NC3(C(=O)O)CCOCC3)cc2COC2CCCC2)c(F)c(OC)n1		50.2	< 100
COc1cc(-c2ccc(NC3(C(=O)O)CCCCC3)cc2COC2CC2)c(F)c(OC)c1C		47.4	< 100
COc1cc(-c2ccc(NCCC(=O)O)cc2CCC2(C)Oc3ccccc3O2)cc(OC)c1C		248	100 to 1000
COc1cc(-c2ccc(OC3(C(=O)O)CCOCC3)cc2CCC2CCOC2)c(Cl)c(OC)n1 (single isomer, unassigned) [268]		648	100 to 1000
COc1cc(-c2ccc(CC3(C(=O)O)CCOCC3)cc2COC2CCCC2)c(Cl)c(OC)n1		2390	> 1000
CCOc1cccc(-c2ccc(NC3(C(=O)O)CCOCC3)cc2CCC2CC2)c1C		1.95	< 100

The match of structure and compound is tentative.
